Test results reported in publication PMC7406630 (EJNMMI Research, 2020).

Assays:
peptide made by a vendor = settings: whole synthesis, analytical RP-HPLC (Phenomenex Jupiter Proteo 90 Å C12)
[1] = general procedure: Fmoc solid-phase peptide synthesis; settings: whole synthesis, analytical RP-HPLC (Phenomenex Jupiter Proteo 90 Å C12)

Substance: DOTA-(4-amino-3-iodo)-D-Phe-c[Cys-(3-iodo)-Tyr-D-Trp-Lys-Val-Cys]-Thr-NH2
- final HPLC purity (peptide made by a vendor): 100%

Substance: DOTA-D-Phe-c[Cys-Tyr-D-Trp-Lys-Thr-Cys]Thr
- final HPLC purity [1]: 100%

Substance: DOTA-D-Phe-c[Cys-1-NaI-D-Trp-Lys-Thr-Cys]Thr(ol)
- final HPLC purity [1]: 96%

Substance: DOTA-(4-amino)-D-Phe-c[Cys-Tyr-D-Trp-Lys-Val-Cys]-Thr-NH2
- final HPLC purity (peptide made by a vendor): 98%
